From PubChem BioAssay AID192 (DTP/NCI, 2004)
The list is a part of this screen's results and no random one: it is rich in T/C values a quarter to a half above the control, in often repeated tests (any T/C) and in doses without a T/C. Further doses and runs are listed elsewhere. T/C is the treated group as % of the vehicle group. Some doses have a count of surviving animals in place of a T/C: the source files T/C as zero there, which appears to mark a toxic dose or a test without result, not a measured value. Some doses without a T/C left all or most animals alive at the check, yet need not have been tolerated: survival well below the control is almost never listed, so the zero probably covers shortened survival too. Counts of survivors are from the toxicity check (mostly the fifth day) where no day follows; animals may have died later. Schedules are NCI's codes, taken here to give the interval after Q, in days (D) or hours (H), and the number of doses after X. Some doses were run more than once; their values stand side by side, smallest first. Some molecules as drawn cover several salts, stereoisomers or complexes of the source; a dose is that of the sample tested. For survival time, this PubChem deposit counts one and a half times the control or more as active, and values a quarter to a half above the control carry no call in these data; other NCI protocols may use other cut-offs. Some T/C values carry the count of animals alive at the toxicity check (mostly the fifth day); without a count, all were alive then.

Test system: BDF1 mice, B16 melanoma ip, median survival T/C
Experiment: NCI In Vivo Anticancer Drug Screen. Data for tumor model B16 Melanoma (intraperitoneal) in B6D2F1 (BDF1) mice
Conditions: T/C endpoint: median survival time, higher T/C = longer survival
Outline: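 Each result divides a survival or tumor-size measurement in the compound-treated group by the same measurement in the vehicle group.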

[1] = dose: 200.0 mg/kg/injection, schedule: Q01DX009 (ip), vehicle: saline
[2] = dose: 6.25 mg/kg/injection, schedule: Q01DX009 (ip), vehicle: saline
[3] = dose: 400.0 mg/kg/injection, schedule: Q01DX009 (ip), vehicle: saline
[4] = dose: 50.0 mg/kg/injection, schedule: Q01DX009 (ip), vehicle: saline
[5] = dose: 100.0 mg/kg/injection, schedule: Q04DX003 (ip), vehicle: saline with Tween-80
[6] = dose: 400.0 mg/kg/injection, schedule: Q04DX003 (ip), vehicle: saline with Tween-80
[7] = dose: 200.0 mg/kg/injection, schedule: Q01DX009 (ip), vehicle: saline with Tween-80
[8] = dose: 100.0 mg/kg/injection, schedule: Q01DX009 (ip), vehicle: Klucel (hydroxypropylcellulose) (HPC)
[9] = dose: 200.0 mg/kg/injection, schedule: Q01DX009 (ip), vehicle: Klucel (hydroxypropylcellulose) (HPC)
[10] = dose: 400.0 mg/kg/injection, schedule: Q01DX009 (ip), vehicle: Klucel (hydroxypropylcellulose) (HPC)
[11] = dose: 25.0 mg/kg/injection, schedule: Q01DX009 (ip), vehicle: saline with Tween-80
[12] = dose: 50.0 mg/kg/injection, schedule: Q01DX009 (ip), vehicle: saline with Tween-80
[13] = dose: 400.0 mg/kg/injection, schedule: Q01DX009 (ip), vehicle: saline with Tween-80
[14] = dose: 12.5 mg/kg/injection, schedule: Q01DX009 (ip), vehicle: saline

Question: For `CC1(C)COCN1COCCOCN1COCC1(C)C`, which survivor count [1] is on record?
Answer: 9 of 10

Question: For `COC(=O)[C@@H]1c2cc3c(c(O)c2[C@@H](OC)C[C@@]1(C)O)C(=O)c1c(O)cc2c(c1C3=O)OC1O[C@@]2(C)[C@H](O)[C@@H](N(C)C)[C@@H]1O`, which T/C (dose: 3.12 mg/kg/injection, schedule: Q01DX009 (ip), vehicle: saline) is on record?
Answer: 134 % of control

Question: And the T/C [2]?
Answer: 130 % of control

Question: What about the survivor count (dose: 100.0 mg/kg/injection, schedule: Q01DX009 (ip), vehicle: saline) of the same molecule?
Answer: 3 of 10 and 10 of 10

Question: What about the survivor count [1] of the same molecule?
Answer: 0 of 10

Question: What about the survivor count [3] of the same molecule?
Answer: 10 of 10

Question: `COC1CC(OC2CCC3(C)C(CCC45OC46CCC(C4=CC(=O)OC4)C6(C)CCC35)C2)OC(C)C1O` (stereo not given) was tested. Which survivor count [2] did it give?
Answer: 10 of 10

Question: What about the survivor count [4] of the same molecule?
Answer: 10 of 10

Question: With `COC1OC2COC(c3ccccc3)OC2C(O)C1N` (stereo not given) as the molecule, how does the T/C (dose: 25.0 mg/kg/injection, schedule: Q04DX003 (ip), vehicle: saline with Tween-80) read?
Answer: 144 % of control

Question: What about the T/C [5] of the same molecule?
Answer: 147 % of control

Question: For `CC(=O)C1CCC2C3CCC4=CC(=O)CC4(C)C3CCC12C` (stereo not given), which survivor count [6] is on record?
Answer: 7 of 10

Question: `CCC1=C(c2cc(Cl)c3ccccc3c2OCC(=O)O)OC(CC)(C(=O)c2cc(Cl)c3ccccc3c2OCC(=O)O)CC1` (stereo not given) was tested. Which survivor count [6] did it give?
Answer: 7 of 10

Question: How did the survivor count (dose: 8.0 mg/kg/injection, schedule: Q01DX009 (ip), vehicle: saline with Tween-80) turn out when `C1CCC2C[N-]CCC2C1.C1CCC2C[N-]CCC2C1.C1CCC2C[N-]CCC2C1.C1CCC2C[N-]CCC2C1.[Cl][Rh][Cl]` (stereo not given) was run?
Answer: 4 of 10

Question: How did the survivor count [7] turn out when `Cc1c[n+]2ccccc2n1C` was run?
Answer: 0 of 10 and 3 of 10

Question: For `CCOC(=O)CNC(=O)CCCCSc1ncnc2nc[nH]c12`, which survivor count (dose: 20.0 mg/kg/injection, schedule: Q01DX009 (ip), vehicle: Klucel (hydroxypropylcellulose) (HPC)) is on record?
Answer: 10 of 10

Question: And the survivor count (dose: 40.0 mg/kg/injection, schedule: Q01DX009 (ip), vehicle: Klucel (hydroxypropylcellulose) (HPC))?
Answer: 10 of 10

Question: And the survivor count (dose: 80.0 mg/kg/injection, schedule: Q01DX009 (ip), vehicle: Klucel (hydroxypropylcellulose) (HPC))?
Answer: 10 of 10

Question: What about the survivor count (dose: 160.0 mg/kg/injection, schedule: Q01DX009 (ip), vehicle: Klucel (hydroxypropylcellulose) (HPC)) of the same molecule?
Answer: 10 of 10

Question: What about the survivor count (dose: 320.0 mg/kg/injection, schedule: Q01DX009 (ip), vehicle: Klucel (hydroxypropylcellulose) (HPC)) of the same molecule?
Answer: 10 of 10

Question: What about the survivor count (dose: 640.0 mg/kg/injection, schedule: Q01DX009 (ip), vehicle: Klucel (hydroxypropylcellulose) (HPC)) of the same molecule?
Answer: 10 of 10

Question: With `Cc1ccc(S(=O)(=O)NC(CSSCC(NS(=O)(=O)c2ccc(C)cc2)C(=O)OC(C)(C)C)C(=O)OC(C)(C)C)cc1` (stereo not given) as the molecule, how does the survivor count [8] read?
Answer: 9 of 10

Question: What about the survivor count [9] of the same molecule?
Answer: 10 of 10

Question: Which survivor count [3] does the source give for `CCN(C)CCN(C)CC` here?
Answer: 0 of 10

Question: Which results are given for `CC(N)Cc1cn(C)c2ccccc12` (stereo not given)?
Answer: survivor count [1]: 0 of 10; survivor count [3]: 0 of 10

Question: Which survivor count (dose: 160.0 mg/kg/injection, schedule: Q01DX009 (ip), vehicle: saline) does the source give for `COc1cc(Cc2nccc3cc(OC)c(OC)cc23)c(C(C)=O)c(OC)c1` here?
Answer: 10 of 10

Question: With `CC1(C)N=C(N)N=C(N)N1c1cccc(Cl)c1` as the molecule, how does the T/C (dose: 40.0 mg/kg/injection, schedule: Q04DX003 (ip), vehicle: saline) read?
Answer: 130 % of control

Question: And the T/C (dose: 80.0 mg/kg/injection, schedule: Q04DX003 (ip), vehicle: saline)?
Answer: 132 % of control [9 of 10 alive]

Question: With `N#CC1CC=CCC1` (stereo not given) as the molecule, how does the survivor count [5] read?
Answer: 7 of 10

Question: And the survivor count (dose: 200.0 mg/kg/injection, schedule: Q04DX003 (ip), vehicle: saline with Tween-80)?
Answer: 0 of 10

Question: And the survivor count [6]?
Answer: 0 of 10

Question: What does the source list for `O=C1CN(CCN2CC(=O)NC(=O)C2)CC(=O)N1`?
Answer: T/C (dose: 60.0 mg/kg/injection, schedule: Q01DX009 (oral), vehicle: saline): 127 % of control; T/C (dose: 120.0 mg/kg/injection, schedule: Q01DX009 (oral), vehicle: saline): 140 % of control; T/C (dose: 240.0 mg/kg/injection, schedule: Q01DX009 (oral), vehicle: saline): 143 % of control

Question: For `CS(=O)(=O)c1ccnc2ccccc12`, which survivor count [9] is on record?
Answer: 0 of 10

Question: What about the survivor count [10] of the same molecule?
Answer: 0 of 10

Question: Which survivor count [8] does the source give for `C=C(Cl)c1c(C)cc(C)cc1C` here?
Answer: 9 of 10

Question: And the survivor count [9]?
Answer: 8 of 10

Question: With `C=C(C)C12OC3(c4ccccc4)OC1C1C4OC4(CO)C(O)C4(O)C(=O)C(C)=CC4C1(O3)C(C)C2OC(=O)/C=C/C=C/c1ccccc1` (stereo not given) as the molecule, how does the survivor count (dose: 200.0 micrograms/kg/injection, schedule: Q01DX009 (ip), vehicle: alcohol) read?
Answer: 9 of 10

Question: And the survivor count (dose: 400.0 micrograms/kg/injection, schedule: Q01DX009 (ip), vehicle: alcohol)?
Answer: 4 of 10

Question: How did the survivor count [11] turn out when `Cc1cc(Cc2ccc(N=C=O)c(C)c2)ccc1N=C=O` was run?
Answer: 10 of 10

Question: And the survivor count [12]?
Answer: 10 of 10

Question: What about the survivor count (dose: 100.0 mg/kg/injection, schedule: Q01DX009 (ip), vehicle: saline with Tween-80) of the same molecule?
Answer: 10 of 10

Question: And the survivor count [7]?
Answer: 10 of 10

Question: And the survivor count [13]?
Answer: 8 of 10

Question: For `CC(C)n1c(=S)[nH]c2ccccc2c1=O`, which T/C (dose: 25.0 mg/kg/injection, schedule: Q01DX009 (ip), vehicle: saline) is on record?
Answer: 130 % of control

Question: And the survivor count [4]?
Answer: 9 of 10

Question: What about the survivor count [7] of the same molecule?
Answer: 6 of 6

Question: What about the survivor count [10] of the same molecule?
Answer: 8 of 10

Question: And the survivor count [13]?
Answer: 6 of 6

Question: What does the source list for `COc1cccc2c1C(=O)c1c(O)c3c(c(O)c1C2=O)CC(O)(C(C)=O)CC3OC1CC(NC(=O)C(CCCCN)NC(=O)C2CCCN2)C(O)C(C)O1` (stereo not given)?
Answer: survivor count (dose: 160.0 mg/kg/injection, schedule: Q01DX001 (ip), vehicle: water): 3 of 10; survivor count (dose: 320.0 mg/kg/injection, schedule: Q01DX001 (ip), vehicle: water): 1 of 10

Question: What does the source list for `O=c1[nH]c2ccccc2nc1CBr`?
Answer: survivor count (dose: 6.25 mg/kg/injection, schedule: Q01DX009 (ip), vehicle: saline with Tween-80): 6 of 6; survivor count (dose: 12.5 mg/kg/injection, schedule: Q01DX009 (ip), vehicle: saline with Tween-80): 5 of 6; survivor count [11]: 1 of 6; survivor count [12]: 0 of 6

Question: How did the T/C [9] turn out when `COC(=O)/C=C/N1C(=O)c2ccccc2C1=O` was run?
Answer: 132 % of control [9 of 10 alive]

Question: Which T/C (dose: 2.0 mg/kg/injection, schedule: Q01DX009 (ip), vehicle: saline with Tween-80) does the source give for `CN(N=O)C(=O)Nc1c[nH]c(=O)[nH]c1=O` here?
Answer: 126 % of control

Question: And the T/C (dose: 4.0 mg/kg/injection, schedule: Q01DX009 (ip), vehicle: saline with Tween-80)?
Answer: 141 % of control

Question: And the T/C [14]?
Answer: 138 % of control

Question: What about the survivor count [4] of the same molecule?
Answer: 6 of 6

Question: How did the survivor count [8] turn out when `CCCCCCCCCCCCCCCCS(=O)(=O)c1ccc(NN)cc1` was run?
Answer: 10 of 10

Question: What about the survivor count [10] of the same molecule?
Answer: 10 of 10

Question: Which results are given for `CCCCCCCCCCCCCC[N+](C)(C)CCCCCCCCCCCCCC`?
Answer: survivor count (dose: 12.0 mg/kg/injection, schedule: Q01DX009 (ip), vehicle: saline): 9 of 10; survivor count (dose: 24.0 mg/kg/injection, schedule: Q01DX009 (ip), vehicle: saline): 7 of 10; survivor count (dose: 48.0 mg/kg/injection, schedule: Q01DX009 (ip), vehicle: saline): 0 of 10

Question: For `COC1OC(CO)C(O)C(NC(=O)N(C)N=O)C1O` (stereo not given), which T/C [14] is on record?
Answer: 125 % of control

Question: What about the T/C (dose: 25.0 mg/kg/injection, schedule: Q01DX009 (ip), vehicle: saline, evaluated on day 45) of the same molecule?
Answer: 128 % of control [9 of 10 alive]

Question: What about the T/C (dose: 25.0 mg/kg/injection, schedule: Q01DX009 (ip), vehicle: saline, evaluated on day 60) of the same molecule?
Answer: 135 % of control

Question: What about the T/C [4] of the same molecule?
Answer: 139 % of control

Question: And the survivor count [3]?
Answer: 9 of 10 and 10 of 10

Question: For `Cc1ccc(S(=O)(=O)c2ccc(Sc3cccc[n+]3[O-])c3nonc23)cc1`, which survivor count (dose: 640.0 mg/kg/injection, schedule: Q04DX002 (ip), vehicle: saline with Tween-80) is on record?
Answer: 0 of 3

Question: For `NCCNc1ccc(NCCN)c2c1C(=O)c1ccccc1C2=O`, which survivor count (dose: 16.0 mg/kg/injection, schedule: Q01DX009 (ip), vehicle: acid diluted with saline) is on record?
Answer: 10 of 10

Question: What about the survivor count (dose: 32.0 mg/kg/injection, schedule: Q01DX009 (ip), vehicle: acid diluted with saline) of the same molecule?
Answer: 6 of 10

Question: And the survivor count (dose: 64.0 mg/kg/injection, schedule: Q01DX009 (ip), vehicle: acid diluted with saline)?
Answer: 0 of 10
